No signal at the amounts used counts as a negative.
Test system: MclX-His (Bacillus thuringiensis subsp. kurstaki HD73)
Assay: EMSA
Conditions: 1 ng probe, increasing MclX (lanes 2-5, amounts not stated); EMSA as in Shen et al., 2021; pH and temperature not given; 1 ng FAM-labelled probe; recombinant protein; residues 1-220; protein details: C-terminal His (pET21b); label: FAM (on reverse primer PcwlC-R); probe letters rebuilt from the primers and the genome

“TATTCATCAACATCTCCTTTCTTAATATCTTATTCAAAACTTGTCTTATTGCTATTCCCACTTACAATCTTAACTGTGCCCATACGTCCTATATTTTCTAAAAGTTATGCAATTTGTTTTCGATATAAAAAAGCTATCGCTTCATAAATCGAATGATTTATTCTCTAAATTACTTTTACATGAATGACGACACGAACAAAAAAG (double strand) [PcwlC promoter probe]”: no binding.

Reference: publication PMC9397120
